Data as given in PubChem BioAssay AID743454 (Peter MacCallum Cancer Centre, 2014).
This is a random part of about 18,000 reagents tested. 450 of them (2.5%) count as active. 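Single biological run; no consistent viability z cut-off exists, so the class columns, not z-scores, define the calls.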 Unmarked entries are inactive.

Aim: 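Search for knock-downs that restore vorinostat killing in resistant colon cancer cells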 (primary screen)
System: human HCT116-VR colon cancer cells, selected for vorinostat resistance
Reagents: siRNA pool against human genes, 40 nM siRNA pool
Time to read-out: vorinostat for 24 h, read-out about 72 h after transfection
Conditions: vorinostat at 2.5 µM final
Measured: 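Two measures, CellTiter-Fluor viability and luminescent caspase 3/7 activity, each as fold change against same-plate mock wells, mean of duplicates, then screen-wide robust z-score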
Direction: viability robust z-score: higher = more viable cells than screen typical; caspase robust z-score: higher = more caspase 3/7 activity than screen typical
Hit rule: 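Hits are knock-downs in viability class RV1/RV2 or caspase class CA1/CA2, excluding ones that killed cells in the no-drug cell-count arm; hits then retested with single siRNAs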

Target gene,viability hit class,caspase hit class,viability robust z-score,caspase robust z-score
ZNF138,no change,no change,-0.9,-1.23
SLC25A23,no change,no change,0.36,2.9
PEX26,no change,no change,-1.32,0.88
PCDH11Y,no change,no change,-0.68,-0.8
PELI1,no change,no change,-3.21,-0.84
ELOVL2,no change,no change,1.49,-0.04
KHDC4,no change,no change,-0.45,0.51
OR6B1,no change,no change,-0.13,0.6
MRPS26,no change,no change,-0.34,-0.82
TOM1L1,no change,no change,0.72,-0.93
HBD,no change,no change,-0.06,0
METTL8,no change,no change,-0.02,-0.2
SIAH2,RV2 (reduced viability) (active),CA2 (caspase activation),-2.92,10.9
CAPG,no change,no change,-0.5,0.64
CCAR2,no change,no change,-0.84,2.14
LCN2,no change,no change,0.59,2.37
CDK16,no change,no change,-0.22,-0.36
CYYR1,no change,no change,0.7,0.22
TMEM270,no change,no change,-0.66,2.5
RNFT2,no change,no change,0.92,0.35
MAPK8,no change,no change,0.7,-0.41
GPHRB,no change,no change,0.17,-0.42
OVOL1,no change,no change,0.21,-0.79
NMNAT3,no change,no change,-2.88,1.61
CEP164,no change,no change,-2.34,1.51
SLC49A3,no change,no change,-0.13,0.08
ZFAND3,no change,no change,-0.2,-1.06
KRTAP5-1,no change,no change,0.25,0.6
F2RL3,no change,no change,-1.63,0.36
NOL10,no change,no change,-1.77,-0.3
SCOC,no change,no change,0.23,-0.45
IL13RA1,no change,no change,0.03,1.36
VPS13D,no change,no change,0.81,0.42
S100A6,no change,no change,-0.9,2.73
MISP,no change,no change,0.81,-0.84
ANGPTL5,no change,no change,0.52,-0.8
ZNF398,no change,no change,-1.22,0.55
CPSF3,no change,no change,-1.11,-1.1
OR9Q2,no change,no change,-1.08,-0.04
OXER1,no change,no change,1.25,-0.66
TMEM158,no change,no change,-0.42,2.12
PSD2,no change,no change,0.94,-0.14
CCDC34,no change,no change,-2.63,0.58
POU4F3,no change,no change,-0.22,-1.23
PKD1L2,no change,no change,-0.36,-0.01
NT5E,no change,no change,2.12,-1.02
KLRF1,no change,no change,0.3,-0.49
INPP5B,no change,no change,-0.93,3.58
GABARAPL2,no change,no change,1.05,-0.64
ARHGAP12,no change,no change,0.45,-0.62
CCDC62,no change,no change,1.34,-0.82
ACTN2,no change,no change,0.58,-0.62
GMPR,no change,no change,2.06,0.3
PTCHD3,no change,no change,-0.39,-0.73
MAG,no change,no change,0.2,0.24
AP2M1,no change,no change,-0.24,-0.86
IRAG1,no change,no change,-0.22,0.57

Ordered by “viability robust z-score” (ascending): 3 of the entries above
Target gene,viability hit class,caspase hit class,viability robust z-score,caspase robust z-score
KHDC4,no change,no change,-0.45,0.51
OR6B1,no change,no change,-0.13,0.6
ELOVL2,no change,no change,1.49,-0.04
